Measured values as given in article PMC7031389.
No constants are given. Whether binding was seen depends on the method and setting. For some of these results: In cells and extracts the contact can be indirect. Some binding calls cover weakened binding; strength is not graded here.

Sequences of proteins named here, by UniProt entry; tags and fusion partners are left off.
UniProt Q8N884: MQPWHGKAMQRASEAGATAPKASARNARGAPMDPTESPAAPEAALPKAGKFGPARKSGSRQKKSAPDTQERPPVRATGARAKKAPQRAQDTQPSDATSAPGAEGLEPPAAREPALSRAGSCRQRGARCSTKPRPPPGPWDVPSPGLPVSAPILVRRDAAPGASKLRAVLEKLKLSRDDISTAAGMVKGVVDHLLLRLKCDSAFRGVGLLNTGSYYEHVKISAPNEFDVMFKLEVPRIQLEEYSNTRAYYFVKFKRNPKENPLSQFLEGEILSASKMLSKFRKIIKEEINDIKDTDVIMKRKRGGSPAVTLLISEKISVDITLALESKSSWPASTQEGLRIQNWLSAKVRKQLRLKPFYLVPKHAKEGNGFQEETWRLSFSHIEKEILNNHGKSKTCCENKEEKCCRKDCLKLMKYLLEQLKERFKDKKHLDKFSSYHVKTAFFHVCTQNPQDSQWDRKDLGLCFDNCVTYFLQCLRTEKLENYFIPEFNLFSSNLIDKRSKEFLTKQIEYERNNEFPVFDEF
UniProt P11387: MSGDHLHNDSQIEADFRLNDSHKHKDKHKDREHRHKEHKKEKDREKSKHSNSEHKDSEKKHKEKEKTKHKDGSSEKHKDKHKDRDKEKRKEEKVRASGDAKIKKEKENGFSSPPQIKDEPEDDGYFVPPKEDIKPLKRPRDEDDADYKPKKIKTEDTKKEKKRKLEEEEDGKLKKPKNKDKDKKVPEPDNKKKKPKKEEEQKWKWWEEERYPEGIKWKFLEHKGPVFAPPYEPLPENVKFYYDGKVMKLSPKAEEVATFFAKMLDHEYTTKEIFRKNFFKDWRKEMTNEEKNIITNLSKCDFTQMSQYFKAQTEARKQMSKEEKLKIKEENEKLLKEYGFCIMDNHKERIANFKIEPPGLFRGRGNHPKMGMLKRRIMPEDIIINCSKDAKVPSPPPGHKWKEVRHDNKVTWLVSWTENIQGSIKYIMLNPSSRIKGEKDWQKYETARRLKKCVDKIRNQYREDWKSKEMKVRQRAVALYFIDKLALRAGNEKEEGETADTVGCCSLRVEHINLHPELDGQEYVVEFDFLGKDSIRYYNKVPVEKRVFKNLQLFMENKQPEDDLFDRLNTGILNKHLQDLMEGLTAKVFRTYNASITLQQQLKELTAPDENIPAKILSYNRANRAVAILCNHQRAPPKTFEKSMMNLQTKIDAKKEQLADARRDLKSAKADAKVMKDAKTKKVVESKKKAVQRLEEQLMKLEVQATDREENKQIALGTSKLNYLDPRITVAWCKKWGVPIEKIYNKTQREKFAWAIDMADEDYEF

Columns and labels:
GST-tagged cGAS = GST-tagged cGAS (UniProt Q8N884); assay: pull-down; GST or GST-tagged cGAS immobilized on glutathione-sepharose beads, incubated with His-tagged TOP1 at 4 °C for 16 h; washed three times with buffer including 150 mM NaCl; immunoblot; both purified
[1] = target: Cyclic cGMP-AMP synthase (cGAS), endogenous in IMR90 cells (human (endogenous in IMR90)) (UniProt Q8N884); assay: co-IP; endogenous proteins in RAS-induced senescent IMR90 cells with HMGB2 knockdown; (ISD)2 45 bp dsDNA added to the lysate supernatant; immunoblot
[2] = target: Cyclic cGMP-AMP synthase (cGAS), endogenous in IMR90 cells (human (endogenous in IMR90)) (UniProt Q8N884); assay: condition: only HMGB2 knockdown cells, DNA free co-IP lysates; co-IP; endogenous proteins in RAS-induced senescent IMR90 cells with HMGB2 knockdown; DNA free co-IP lysates (RIPA supernatant); immunoblot
[3] = target: Cyclic cGMP-AMP synthase (cGAS), endogenous in IMR90 cells (human (endogenous in IMR90)) (UniProt Q8N884); assay: co-IP; endogenous proteins in control and RAS-induced senescent IMR90 cells; RIPA lysate, supernatant incubated with antibody or isotype IgG (5 ug) at 4 °C overnight, protein A/G beads; immunoblot

binding (GST-tagged cGAS) | binding [1] | binding [2] | binding [3] | Substance
binds |  |  |  | Recombinant his-tagged TOP1 protein (from UniProt P11387 1-765)
 | binds | no binding | binds | Topoisomerase 1 (TOP1), endogenous in IMR90 cells (from UniProt P11387 1-765)
